# In patent US20260035723:
# Target: T1, Exonuclease III (Escherichia coli) (UniProt P09030)
# T1 sequence (looked up, limits assumed): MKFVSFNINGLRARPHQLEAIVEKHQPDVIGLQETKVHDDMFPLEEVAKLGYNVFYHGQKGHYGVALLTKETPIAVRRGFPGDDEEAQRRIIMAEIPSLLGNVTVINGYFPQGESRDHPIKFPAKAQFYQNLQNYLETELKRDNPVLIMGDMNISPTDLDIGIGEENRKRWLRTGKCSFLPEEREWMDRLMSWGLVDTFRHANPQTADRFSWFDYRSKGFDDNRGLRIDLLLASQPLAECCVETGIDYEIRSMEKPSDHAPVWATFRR
# Assay: enzyme reaction in vitro
# Settings: PS at first-strand 5' nucleotides, ssDNA produced even without added AP endonuclease, CutSmart buffer, purified recombinant protein, protein details: 4basebio
Sequence,activity on this sequence (abasic site at position 8 of second strand),"activity on this sequence (abasic site at position 6 of second strand, no visible dsDNA remains)"
GGCCAACAAATGTTAG / AGGGCTACATTTGTTGGCC [adaptor abasic 2 (ligated to target DNA)],active,–
GGCCAACAAATGTTAG / AGGGCAACATTTGTTGGCC [adaptor abasic 1 (ligated to target DNA)],–,active

# The exact form of at least one protein or probe is not confirmed. Tags and fusion partners may be left off the protein sequences shown.
